Record: PubChem BioAssay AID1159578 (Peter MacCallum Cancer Centre, 2015)

Purpose: 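siRNA pools altering how lymphatic endothelial cells close a scratch wound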 (primary screen)
Cells: human lymphatic endothelial cells
Reagents: siRNA pool against human genes, 40 nM
Duration: 48 h after transfection
Detection: 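High-content imaging of dye-stained cells in a scratch assay measures filled wound area and nuclei per well; duplicate means given as ratio to mock and robust z-score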
Reading the numbers: migration robust z-score: higher = faster migration into the scratch; nuclei per well: higher = more cells in the well
Hit rule: 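Pools averaging fewer than 3300 nuclei are never called; remaining pools count as changed when migration robust z lies outside -2 to 2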
Calls: active = migration changed; inactive = no migration change, or too few cells
Here is an unselected part of about 18,000 reagents. About 1,030 of them (5.7%) count as active. 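Inactive calls also include pools with fewer than 3300 nuclei, whose migration was not assessed.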 Raw values are not corrected between plates. A number with no mark means an inactive call. Further read-outs or replicates are left out here.

PLGRKT (plasminogen receptor with a C-terminal lysine) scored migration robust z-score -0.18; nuclei per well, duplicate mean 7052. After knock-down of INPP5J (inositol polyphosphate-5-phosphatase J), the screen gave migration robust z-score -0.75; nuclei per well, duplicate mean 5592. MFRP (membrane frizzled-related protein) gave migration robust z-score -0.02; nuclei per well, duplicate mean 5582. MAFK (MAF bZIP transcription factor K) scored migration robust z-score -0.35; nuclei per well, duplicate mean 6583. BCAR1 (BCAR1 scaffold protein, Cas family member) showed migration robust z-score -1.64; nuclei per well, duplicate mean 5822. Against WDR41 (WD repeat domain 41), the entry reads migration robust z-score 0.92; nuclei per well, duplicate mean 5934.

Against DUSP2 (dual specificity phosphatase 2), the values are migration robust z-score 0.34; nuclei per well, duplicate mean 5676. Against CDKL1 (cyclin dependent kinase like 1), the values are migration robust z-score -3.52; nuclei per well, duplicate mean 2915. With knock-down of MYO9A (myosin IXA), the screen gave migration robust z-score -0.18; nuclei per well, duplicate mean 6303. For FILIP1L (filamin A interacting protein 1 like), the values are migration robust z-score -0.57; nuclei per well, duplicate mean 5648. Against PARP2 (poly(ADP-ribose) polymerase 2), the values are migration robust z-score 1.03; nuclei per well, duplicate mean 5218. With knock-down of THBD (thrombomodulin) the results were migration robust z-score 0.42; nuclei per well, duplicate mean 6860.

Targets above whose gene name starts with P or p (2):
PLGRKT (plasminogen receptor with a C-terminal lysine) | migration robust z-score = -0.18; nuclei per well, duplicate mean = 7052
PARP2 (poly(ADP-ribose) polymerase 2) | migration robust z-score = 1.03; nuclei per well, duplicate mean = 5218
